No constants are given. Whether binding was seen depends on the method and setting. For some assays here: In cells and extracts the contact can be indirect. Some entries that bind do so weakly or less than the wild type.

The chains behind the UniProt entries cited, without tags or fusion partners.
UniProt P15531: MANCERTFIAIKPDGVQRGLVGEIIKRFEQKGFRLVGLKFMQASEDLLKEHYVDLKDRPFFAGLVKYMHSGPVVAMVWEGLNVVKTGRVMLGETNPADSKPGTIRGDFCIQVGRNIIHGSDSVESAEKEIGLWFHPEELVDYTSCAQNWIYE
UniProt Q04207: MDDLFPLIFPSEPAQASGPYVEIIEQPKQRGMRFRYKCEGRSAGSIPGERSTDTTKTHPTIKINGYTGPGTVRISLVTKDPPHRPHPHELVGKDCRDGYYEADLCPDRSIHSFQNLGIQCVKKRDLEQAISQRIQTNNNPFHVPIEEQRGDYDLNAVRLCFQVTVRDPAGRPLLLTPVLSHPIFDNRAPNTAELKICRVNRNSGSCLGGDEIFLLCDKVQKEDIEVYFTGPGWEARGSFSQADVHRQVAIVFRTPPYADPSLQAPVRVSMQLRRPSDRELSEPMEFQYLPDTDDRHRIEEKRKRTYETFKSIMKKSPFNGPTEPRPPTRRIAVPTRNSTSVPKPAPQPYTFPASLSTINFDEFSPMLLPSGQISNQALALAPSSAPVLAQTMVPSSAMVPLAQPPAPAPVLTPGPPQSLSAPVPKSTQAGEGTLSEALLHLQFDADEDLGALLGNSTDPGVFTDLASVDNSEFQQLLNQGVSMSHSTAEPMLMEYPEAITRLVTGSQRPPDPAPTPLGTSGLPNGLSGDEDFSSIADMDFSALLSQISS

The record followed here is paper PMC11527346.

The target of one test is FLAG-tagged NME1 (UniProt P15531). Nature of the test: co-IP; anti-FLAG M2 beads on whole cell lysate of HEK293T cotransfected with FLAG-NME1 (or empty vector) and HA-RelA; 25 mM Tris-HCl pH 7.5, 150 mM NaCl, 5% glycerol, 1% NP-40, 1 mM DTT; 2 h at 4°C; Western blot. (In general: Immunoblotting shows a protein as a band on a membrane.)
The target of the next test is GST-tagged NME1 (UniProt P15531). Description: pull-down; 1 μg GST-NME1 (or GST) on glutathione agarose beads, 1 μg recombinant full-length RelA added, without or with 1 μM annealed κB or mutant κB DNA; 25 mM Tris-HCl pH 7.5, 150 mM NaCl, 5% glycerol, 0.1% NP-40, 1 mM DTT; 2 h at 4°C; Western blot; both purified.

Regarding “HA-tagged RelA (from UniProt Q04207 1-549)”, the binding entry with FLAG-tagged NME1 is “binds”.

Regarding “His-tagged full-length RelA (from UniProt Q04207 1-549)”, in the test with GST-tagged NME1, the binding entry was “binds weakly”.
